One substance from PMC9765618 can be followed below.

By UniProt entry, the sequences of proteins in these tests, tags left out. Where a name states a change or a piece, a line headed by the entry shows the natural chain unless it says otherwise. Chains listed by the source or under a name are the forms on record and can include a tag or linker.
bacterially purified GST-tagged Sp100A (P23497, form named): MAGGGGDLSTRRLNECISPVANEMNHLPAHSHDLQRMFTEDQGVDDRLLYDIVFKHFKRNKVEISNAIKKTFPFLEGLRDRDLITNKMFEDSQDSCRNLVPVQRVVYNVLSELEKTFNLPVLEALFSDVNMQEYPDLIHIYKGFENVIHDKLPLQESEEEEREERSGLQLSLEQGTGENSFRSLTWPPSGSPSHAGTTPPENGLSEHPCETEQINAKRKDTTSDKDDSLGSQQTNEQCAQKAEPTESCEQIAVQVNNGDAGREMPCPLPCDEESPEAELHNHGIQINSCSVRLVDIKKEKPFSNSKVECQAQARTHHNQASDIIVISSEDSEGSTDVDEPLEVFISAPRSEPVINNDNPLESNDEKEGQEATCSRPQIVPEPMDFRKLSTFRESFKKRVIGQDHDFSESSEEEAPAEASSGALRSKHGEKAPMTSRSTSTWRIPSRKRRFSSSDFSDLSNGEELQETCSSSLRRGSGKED
UniProt P14618: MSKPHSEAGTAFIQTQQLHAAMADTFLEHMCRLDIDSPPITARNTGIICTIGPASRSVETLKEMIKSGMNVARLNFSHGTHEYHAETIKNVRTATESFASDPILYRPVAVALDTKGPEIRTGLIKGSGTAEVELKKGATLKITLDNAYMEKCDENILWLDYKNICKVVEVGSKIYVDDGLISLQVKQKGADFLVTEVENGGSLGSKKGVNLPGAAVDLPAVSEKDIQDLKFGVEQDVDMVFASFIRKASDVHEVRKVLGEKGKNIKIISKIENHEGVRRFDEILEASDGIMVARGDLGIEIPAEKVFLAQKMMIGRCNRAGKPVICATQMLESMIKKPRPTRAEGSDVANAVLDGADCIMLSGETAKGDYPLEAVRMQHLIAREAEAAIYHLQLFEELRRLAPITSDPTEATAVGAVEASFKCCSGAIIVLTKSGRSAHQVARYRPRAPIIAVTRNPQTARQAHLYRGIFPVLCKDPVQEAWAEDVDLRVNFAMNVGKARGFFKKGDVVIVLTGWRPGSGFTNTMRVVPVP

In assay [1] the target is Flag-Sp100A NLS mutant (human) (UniProt P23497). Kind of assay: affinity purification with mass spectrometry; cytosolic fraction of IFN-β-treated HEp-2 cells transfected with the Flag-Sp100A NLS mutant; anti-Flag magnetic beads overnight at 4°C, washed with PBST; gel bands cut and sent for LC-MS/MS.
In assay [2] the target is bacterially purified GST-tagged Sp100A (human) (UniProt P23497). Kind of assay: affinity purification with mass spectrometry; only the target purified.

No constants are given. Whether binding was seen depends on the method and setting. In cells and extracts the contact can be indirect. These calls come from enrichment with a bait or labelling near it, and not all partners need be listed.

On to “pyruvate kinase 2 (PKM), endogenous (from UniProt P14618 1-531) (enzyme)”, for which the binding result in assay [1] and in assay [2] was “binds” in each case.
